{"source": "patent US10047050B2", "about": "“3,4-di-substituted pyridine compound, methods of using and compositions comprising the same” (ARDEA BIOSCIENCES, INC., priority 2011, dated 2018)", "system": "serum uric acid", "assay": "Multi-dose Phase I clinical trial, serum uric acid (sUA), once daily for 10 days", "format": "in vivo, human", "description": "A Phase 1, Randomized, Double-Blind, Placebo-Controlled Study to Evaluate Safety, Tolerability, Pharmacokinetics and Preliminary Food Effect of Multiple Rising Doses of a URAT1 Inhibitor, in Healthy Adult Male Volunteers.\nFasted subjects receive oral doses of active or placebo, once daily, for 10 days, at the following doses:\n36 subjects in 3 dose groups, 12 subjects/group, are randomized […] to receive active (9/group) or placebo ([…]). All study procedures are the same regardless of whether subject receives active or placebo. Total duration of subject participation, including screening period, is ˜2-4 weeks, and the total volume of blood collected from each subject during the entire study <500 mL, (less than typically collected during a volunteer blood donation).\n5 mg, active and placebo, tablets packaged in 35 count HDPE bottles, stored at controlled room temperature (15-30° C.). Placebo tablets are designed to match the active tablets—identical size, form, taste, and color, and containing the same excipients. 1 mg doses were administered as oral solutions.\nSubjects dosed in the morning of Days 1-10 with ˜240 mL of room temp water.\nUrine, serum and plasma samples collected periodically\nPD samples frozen (−20° C.) and stored; all samples from a given subject assayed in a single analytical run.", "key": {"[1]": {"conditions": "group 7, 1 mg once daily for 10 days, Time 246 (post dosing), individual subjects 4-12"}, "[2]": {"conditions": "group 7, 1 mg once daily for 10 days, Time 252 (post dosing), individual subjects 4-12"}, "[3]": {"conditions": "group 7, 1 mg once daily for 10 days, Time 264 (post dosing), individual subjects 4-12"}, "[4]": {"conditions": "group 7, 1 mg once daily for 10 days, Time 270 (post dosing), individual subjects 4-12"}, "[5]": {"conditions": "group 7, 1 mg once daily for 10 days, Time 288 (post dosing), individual subjects 4-12"}, "[6]": {"conditions": "group 7, 1 mg once daily for 10 days, Time 312 (post dosing), individual subjects 4-12"}, "[7]": {"conditions": "group 8, 5 mg once daily for 10 days, Time 0, individual subjects 4-10"}, "[8]": {"conditions": "group 8, 5 mg once daily for 10 days, Time 6, individual subjects 4-10"}, "[9]": {"conditions": "group 8, 5 mg once daily for 10 days, Time 12, individual subjects 4-10"}, "[10]": {"conditions": "group 8, 5 mg once daily for 10 days, Time 24, individual subjects 4-10"}, "[11]": {"conditions": "group 8, 5 mg once daily for 10 days, Time 48, individual subjects 4-10"}, "[12]": {"conditions": "group 8, 5 mg once daily for 10 days, Time 72, individual subjects 4-10"}, "[13]": {"conditions": "group 8, 5 mg once daily for 10 days, Time 96, individual subjects 4-10"}}, "note": "Values joined by “and” are separate entries in the source; they are usually repeats but may differ in a detail not shown here. Identical values can stand only once. Further values from the same series stand in other lists.", "data": [{"smiles": "CC(C)(Sc1ccncc1-c1ccc(C#N)c2ccccc12)C(=O)O", "note": "[2-((3-(4-cyanonaphthalen-1-yl)pyridin-4-yl)thio)-2-methylpropanoic acid]", "values": [{"measurement": "% sUA change (from baseline)", "setting": "group 7, 1 mg once daily for 10 days, Time 168, individual subjects 4-12", "value": "−10.3% and 3.6% and 3.7% and 2.9% and −1.4% and −6.0% and 4.8% and −10.0% and 5.1%"}, {"measurement": "% sUA change (from baseline)", "setting": "group 7, 1 mg once daily for 10 days, Time 192, individual subjects 4-12", "value": "−20.7% and −10.7% and −9.3% and −7.1% and −11.6% and −11.9% and −9.7% and −15.0% and −6.8%"}, {"measurement": "% sUA change (from baseline)", "setting": "group 7, 1 mg once daily for 10 days, Time 216, individual subjects 4-12", "value": "−19.0% and −12.5% and −13.0% and −12.9% and −15.9% and −20.9% and −9.7% and −18.3% and 0.0%"}, {"measurement": "% sUA change (from baseline)", "setting": "group 7, 1 mg once daily for 10 days, Time 222 (post dosing), individual subjects 4-12", "value": "−19.0% and −7.1% and −9.3% and −10.0% and −14.5% and −13.4% and −12.9% and −16.7% and −6.8%"}, {"measurement": "% sUA change (from baseline)", "setting": "group 7, 1 mg once daily for 10 days, Time 228 (post dosing), individual subjects 4-12", "value": "−25.9% and −14.3% and −9.3% and −11.4% and −18.8% and −17.9% and −14.5% and −20.0% and −8.5%"}, {"measurement": "% sUA change (from baseline)", "setting": "group 7, 1 mg once daily for 10 days, Time 240 (post dosing), individual subjects 4-12", "value": "−17.2% and −1.8% and −1.9% and −1.4% and −10.1% and −7.5% and −4.8% and −13.3% and 1.7%"}, {"measurement": "% sUA change (from baseline)", "setting": "[1]", "value": "−24.1% and −14.3% and −9.3% and −8.6% and −15.9% and −16.4% and −8.1% and −15.0% and −6.8%"}, {"measurement": "Absolute sUA concentration", "setting": "[1]", "value": "4.8 mg/dL and 4.9 mg/dL and 6.4 mg/dL and 5.8 mg/dL and 5.6 mg/dL and 5.7 mg/dL and 5.1 mg/dL and 5.5 mg/dL"}, {"measurement": "% sUA change (from baseline)", "setting": "[2]", "value": "−22.4% and −10.7% and −7.4% and −1.4% and −11.6% and −11.9% and −4.8% and −16.7% and −8.5%"}, {"measurement": "Absolute sUA concentration", "setting": "[2]", "value": "4.5 mg/dL and 5.0 mg/dL (3×) and 6.9 mg/dL and 6.1 mg/dL and 5.9 mg/dL (2×) and 5.4 mg/dL"}, {"measurement": "% sUA change (from baseline)", "setting": "[3]", "value": "−22.4% and −8.9% and −5.6% and −8.6% and −10.1% and −10.4% and −8.1% and −15.0% and −3.4%"}, {"measurement": "Absolute sUA concentration", "setting": "[3]", "value": "4.5 mg/dL and 5.1 mg/dL (3×) and 6.4 mg/dL and 6.2 mg/dL and 6.0 mg/dL and 5.7 mg/dL (2×)"}, {"measurement": "% sUA change (from baseline)", "setting": "[4]", "value": "−29.3% and −17.9% and −11.1% and −14.3% and −14.5% (2×) and −19.4% and −21.7% and −13.6%"}, {"measurement": "Absolute sUA concentration", "setting": "[4]", "value": "4.1 mg/dL and 4.6 mg/dL and 4.8 mg/dL and 6.0 mg/dL and 5.9 mg/dL and 5.4 mg/dL and 5.3 mg/dL and 4.7 mg/dL and 5.1 mg/dL"}, {"measurement": "% sUA change (from baseline)", "setting": "[5]", "value": "−32.8% and −19.6% and −16.7% and −14.3% and −15.9% and −19.4% and −16.1% and −26.7% and −16.9%"}, {"measurement": "Absolute sUA concentration", "setting": "[5]", "value": "3.9 mg/dL and 4.5 mg/dL (2×) and 6.0 mg/dL and 5.8 mg/dL and 5.4 mg/dL and 5.2 mg/dL and 4.4 mg/dL and 4.9 mg/dL"}, {"measurement": "% sUA change (from baseline)", "setting": "[6]", "value": "−24.1% and −16.1% and −14.8% and −11.4% and −11.6% and −16.4% and −12.9% and −18.3% and −8.5%"}, {"measurement": "Absolute sUA concentration", "setting": "[6]", "value": "4.4 mg/dL and 4.7 mg/dL and 4.6 mg/dL and 6.2 mg/dL and 6.1 mg/dL and 5.6 mg/dL and 5.4 mg/dL (2×) and 4.9 mg/dL"}, {"measurement": "% sUA change (from baseline)", "setting": "[7]", "value": 0, "unit": "%"}, {"measurement": "Absolute sUA concentration", "setting": "[7]", "value": "5.3 mg/dL and 6.5 mg/dL (2×) and 6.0 mg/dL and 5.8 mg/dL and 5.6 mg/dL and 5.5 mg/dL"}, {"measurement": "% sUA change (from baseline)", "setting": "[8]", "value": "−15.1% and −18.5% (2×) and −20.0% and −17.2% and −23.2% and −30.9%"}, {"measurement": "Absolute sUA concentration", "setting": "[8]", "value": "4.5 mg/dL and 5.3 mg/dL (2×) and 4.8 mg/dL (2×) and 4.3 mg/dL and 3.8 mg/dL"}, {"measurement": "% sUA change (from baseline)", "setting": "[9]", "value": "−24.5% and −20.0% and −18.5% and −25.0% and −20.7% and −30.4% and −40.0%"}, {"measurement": "Absolute sUA concentration", "setting": "[9]", "value": "4.0 mg/dL and 5.2 mg/dL and 5.3 mg/dL and 4.5 mg/dL and 4.6 mg/dL and 3.9 mg/dL and 3.3 mg/dL"}, {"measurement": "% sUA change (from baseline)", "setting": "[10]", "value": "−28.3% and −18.5% and −13.8% and −16.7% and −6.9% and −25.0% and −38.2%"}, {"measurement": "Absolute sUA concentration", "setting": "[10]", "value": "3.8 mg/dL and 5.3 mg/dL and 5.6 mg/dL and 5.0 mg/dL and 5.4 mg/dL and 4.2 mg/dL and 3.4 mg/dL"}, {"measurement": "% sUA change (from baseline)", "setting": "[11]", "value": "−43.4% and −20.0% and −36.9% and −26.7% and −12.1% and −33.9% and −43.6%"}, {"measurement": "Absolute sUA concentration", "setting": "[11]", "value": "3.0 mg/dL and 5.2 mg/dL and 4.1 mg/dL and 4.4 mg/dL and 5.1 mg/dL and 3.7 mg/dL and 3.1 mg/dL"}, {"measurement": "% sUA change (from baseline)", "setting": "[12]", "value": "−39.6% and −30.8% and −35.4% and −28.3% and −19.0% and −37.5% and −45.5%"}, {"measurement": "Absolute sUA concentration", "setting": "[12]", "value": "3.2 mg/dL and 4.5 mg/dL and 4.2 mg/dL and 4.3 mg/dL and 4.7 mg/dL and 3.5 mg/dL and 3.0 mg/dL"}, {"measurement": "% sUA change (from baseline)", "setting": "[13]", "value": "−32.1% and −29.2% and −33.8% and −30.0% and −17.2% and −33.9% and −36.4%"}, {"measurement": "Absolute sUA concentration", "setting": "[13]", "value": "3.6 mg/dL and 4.6 mg/dL and 4.3 mg/dL and 4.2 mg/dL and 4.8 mg/dL and 3.7 mg/dL and 3.5 mg/dL"}]}]}
